According to patent US20250255968A1, “INTRAVAGINAL DEVICES FOR DRUG DELIVERY” (priority 2011, published 2025):
For at least one compound, name, drawing or mass did not settle the structure.

Columns and labels:
[1] = In vitro LNG release from TFV/LNG reservoir IVR (HPLC); type: physicochemical; details: 2 formulations; sodium acetate buffer pH 4.2, 37° C.
[2] = In vitro drug release testing of dual-segment TFV/LNG IVR in aqueous buffer sink; type: physicochemical; details: hydrophobic solid core reservoir segment of dual-segment IVR; 90 days
Method: Example 29B. In a further example, a TFV/glycerol/water (65/33/2 wt %) semi-solid paste was loaded into the hydrophilic tubing reservoir segment and LNG was dissolved in the hydrophobic solid core reservoir segment of a dual segment IVR made according to Example 29A (using similar polyurethane tubing). The resulting IVR was subjected to in vitro drug release testing in an aqueous buffer sink for 90 days.

Structure (SMILES): C#C[C@]1(O)CC[C@H]2[C@@H]3CCC4=CC(=O)CC[C@@H]4[C@H]3CC[C@@]21CC [LNG, Levonorgestrel]
- duration of maintained steady-state LNG release [1]: 90 days
- LNG release profile [2]: near-zero-order release
